Results: PubChem BioAssay AID1671190 (National Center for Advancing Translational Sciences (NCATS), 2021)
Screen size: about 580,000 compounds; about 6,100 (1.1%) were called active. This list was built around the results that the source calls inconclusive (neither active nor inactive); the mix of calls is not that of the screen. Calls follow the shape of the dose curve; as a rule, active = well fitted inhibition curve with a large enough effect; inconclusive = small, poorly fitted or top-dose-only effect, or another doubt; inactive = no such curve, though single readings can be large or run the other way. Potencies of inconclusive entries are doubtful fits and often do not repeat.

By UniProt entry, the sequences of proteins in these tests, tags left out. Where a name states a change or a piece, a line headed by the entry shows the natural chain unless it says otherwise.
UniProt P18054: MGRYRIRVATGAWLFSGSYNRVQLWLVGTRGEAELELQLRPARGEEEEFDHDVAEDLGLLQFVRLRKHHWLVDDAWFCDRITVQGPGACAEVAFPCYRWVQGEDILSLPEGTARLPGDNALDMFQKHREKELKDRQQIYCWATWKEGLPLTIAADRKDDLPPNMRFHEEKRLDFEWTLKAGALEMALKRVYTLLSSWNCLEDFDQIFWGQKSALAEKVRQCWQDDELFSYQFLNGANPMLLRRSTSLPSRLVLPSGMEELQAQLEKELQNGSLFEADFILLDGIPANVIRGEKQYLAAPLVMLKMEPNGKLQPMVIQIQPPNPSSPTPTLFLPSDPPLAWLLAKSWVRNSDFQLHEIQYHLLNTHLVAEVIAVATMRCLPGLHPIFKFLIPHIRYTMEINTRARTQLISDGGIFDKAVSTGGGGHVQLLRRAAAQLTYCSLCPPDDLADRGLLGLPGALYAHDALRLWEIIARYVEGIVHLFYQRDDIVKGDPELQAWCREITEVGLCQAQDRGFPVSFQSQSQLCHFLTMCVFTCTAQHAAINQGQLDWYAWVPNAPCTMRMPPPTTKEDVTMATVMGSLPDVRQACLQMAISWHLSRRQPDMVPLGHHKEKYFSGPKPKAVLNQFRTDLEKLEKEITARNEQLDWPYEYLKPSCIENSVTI

Molecular target: Polyunsaturated fatty acid lipoxygenase ALOX12 (Homo sapiens) (UniProt P18054)
Test: Primary qHTS assay for inhibitors of human arachidonate 12S-lipoxygenase (ALOX12): Round 2
Conditions: purified 12hLO, xylenol orange hydroperoxide absorbance; activity change, negative = inhibition: at 108 µM (top of the series) unless noted
Procedure, shortened: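 Purified human 12hLO (150 nM final) in 25 mM Hepes, 0.01% Triton X-100, pH 7.0 was preincubated 15 min at room temperature with compound. Then 40 uM arachidonic acid was added, 30 min. Hydroperoxide was read by Fe-XO absorbance ratio 573/405 nm.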
% is scaled to controls: 0 for no effect and ±100 for the full control effect; potency is read from the fitted curve at half-maximal effect.

| SMILES | Potency | activity change, negative = inhibition |
| --- | --- | --- |
| COc1ccc(C2NC(C(=O)O)Cc3c2[nH]c2ccccc32)cc1OC (centres undefined) | inconclusive: 3.55 µM [inhibitor, full curve, poor fit] | – |
| CCOC(=O)c1sc(CC(=O)Nc2ccc(C)cc2C)nc1C | inconclusive: 22.4 µM [inhibitor, partial curve, poor fit] | – |
| CCN(CC)c1ccc(NC(=S)NC(C)C)cc1 | inconclusive: 50.1 µM [inhibitor, partial curve] | – |
| CCn1c(SCC(=O)N/N=C/C=C/c2ccco2)nc2ccccc21 | inconclusive: 44.7 µM [inhibitor, partial curve, poor fit] | – |
| COc1ccc(S(=O)(=O)c2c(C)c(C)n(C(C)C)c2NC(=O)c2cccs2)cc1 | inconclusive: 50.1 µM [inhibitor, partial curve, poor fit] | – |
| CCc1ccccc1Nc1nn2c(=O)c3ccc(C(=O)NC(C)c4ccccc4)cc3nc2s1 (centres undefined) | inconclusive: 141 µM [inhibitor, partial curve, poor fit] | – |
| CC(C)Cc1nc2sc3c(=O)[nH]cnc3c2c2c1CCC2 | inactive | – |
| O=C(Nc1ccc(OC(F)(F)F)cc1)c1ccc2c(c1)no[n+]2[O-] | inconclusive: 100 µM [inhibitor, single point] | – |
| CCCCCC1CC(=O)NC1(C(=O)OCC)C(=O)OCC (centres undefined) | inactive | – |
| CN(C)CCCN1C(=O)CSC1c1ccccc1 (centres undefined) | inconclusive: 39.8 µM [inhibitor, partial curve, poor fit] | – |
| COc1cc(-c2nc(-c3ccccc3)c(-c3cccs3)[nH]2)cc(OC)c1OC | inactive | – |
| CCOC(=O)CCCSc1nc(-c2ccc3c(c2)OCO3)cc(C(F)(F)F)c1C#N | inconclusive: 0.447 µM [inhibitor, full curve, poor fit] | – |
| CC(OC(=O)/C=C/c1cccc(C(F)(F)F)c1)C(=O)NC1CCCCC1C (centres undefined) | inactive | – |
| COCCN1C(=O)c2[nH]nc(-c3cc(Cl)c(C)cc3O)c2C1c1ccc(O)c(OC)c1 (centres undefined) | inconclusive: 50.1 µM [inhibitor, partial curve, poor fit] | – |
| C/C=C/C=C\C(=O)Nc1cccc(C2=NOC3(C2)C[C@@H](C(N)=O)N(C(=O)c2cc([N+](=O)[O-])cc([N+](=O)[O-])c2C)C3)c1 (some centres undefined) | active: 15.8 µM | – |
| O=C1CCCCC/C1=N/Nc1ccc(OCc2ccccc2)cc1 | inconclusive: 35.5 µM [inhibitor, partial curve, poor fit] | – |
| COc1ccc(N=Nc2c(C)[nH][nH]c2=O)cc1 | inconclusive: 50.1 µM [inhibitor, partial curve, poor fit] | – |
| O=[N+]([O-])c1cccc(C(=Nc2ccc(Cl)cc2)NO)c1 | inconclusive: 7.08 µM [inhibitor, partial curve, poor fit] | – |
| Cc1onc(-c2ccccc2)c1C(=O)NNC(=S)NC(=O)/C=C/c1ccccc1 | inconclusive: 39.8 µM [inhibitor, full curve, poor fit] | – |
| CCc1ccc2oc(C(=O)NCC(c3ccco3)N3CCCC3)cc(=O)c2c1 (centres undefined) | inconclusive: 39.8 µM [inhibitor, partial curve, poor fit] | – |
| Cc1ccc(C(=O)NCC(=O)N(C)Cc2ccc(Cl)cc2Cl)s1 | inactive | – |
| C=CC[C@@H](CC(=O)N(CCO)Cc1ccccc1)C(=O)N[C@H](COC(=O)[C@@H](CC=C)CC(=O)OC(C)(C)C)C(C)(C)C | inconclusive: 89.1 µM [inhibitor, partial curve, poor fit] | – |

| SMILES | Potency | activity change, negative = inhibition |
| --- | --- | --- |
| CC(=O)Nc1ccc(NC(=O)c2cc3sccc3n2Cc2ccc(F)cc2)cc1 | inconclusive: 50.1 µM [inhibitor, partial curve, poor fit] | – |
| Cc1ccc(-c2nnc([C@H]3CCN(Cc4cccc(C#N)c4)C3)o2)cc1 | inactive | – |
| CCCNC(=O)C1CC(c2ccccc2[N+](=O)[O-])=NO1 (centres undefined) | inconclusive: 112 µM [inhibitor, single point] | – |
| CC(C)CN(C(=O)CSc1nncn1C)C1CCS(=O)(=O)C1 (centres undefined) | inconclusive: 31.6 µM [inhibitor, single point] | – |
| Cc1cccc(-n2ncc3c(=O)[nH]c(SCC(=O)Nc4cc(C)on4)nc32)c1 | inconclusive: 112 µM [inhibitor, partial curve, poor fit] | – |
| O=C(NCCCO)c1ccc2nc(-c3ccco3)c(-c3ccco3)nc2c1 | inconclusive: 25.1 µM [inhibitor, partial curve] | – |
| CC(SCc1ccc(C(=O)O)o1)c1ccc(C(=O)O)o1 (centres undefined) | inconclusive: 39.8 µM [inhibitor, partial curve, poor fit] | – |
| COc1ccc(NC(=O)CSc2nc3ccc(Nc4nc(N5CCOCC5)nc(N5CCOCC5)n4)cc3s2)cc1 | inactive | – |
| Cc1cc2nc(CSc3ccc(NC(=O)C(C)(C)C)cc3)c(=O)[nH]c2cc1C | inconclusive: 35.5 µM [inhibitor, partial curve, poor fit] | – |
| O=[N+]([O-])c1cc(Cl)ccc1N1CCCCC1 | inactive | – |
| COc1cc(-c2nnc3sc(Cc4ccccc4)nn23)cc(OC)c1OC | inconclusive: 11.2 µM [inhibitor, partial curve, poor fit] | – |
| CC(=O)Nc1ccc(CN2CCn3c(nn(-c4ccc(C(F)(F)F)cc4)c3=O)C2)cc1 | – | inactive: 2.2% [at 6.33 µM] |
| Cc1csc(CNc2ncnc3ccc(-c4ccccc4Cl)cc23)c1 | inconclusive: 56.2 µM [inhibitor, single point] | – |
| COC(=O)c1sc(N2CCN(c3ccc(Cl)cc3)CC2)nc1N | inconclusive: 126 µM [inhibitor, partial curve, poor fit] | – |
| Cc1cc(C)cc(NC(=S)NN)c1 | inconclusive: 39.8 µM [inhibitor, partial curve, poor fit] | – |
| CN(C)/N=C/c1ccc(P(c2ccc(/C=N/N(C)C)o2)c2ccc(/C=N/N(C)C)o2)o1 | active: 39.8 µM | – |
| COc1cc(C=O)ccc1OCc1ccccc1Br | inactive | – |
| O=C(c1nccc2ccccc12)N1CCC(n2cc(-c3nc(-c4ccccc4)no3)nn2)C1 (centres undefined) | inconclusive: 14.1 µM [inhibitor, full curve] | – |
| Cc1nc2ccccc2c(=O)n1/N=C/c1ccco1 | inactive | – |
| C[C@]12CC[C@@H]3c4cc(O)c(O)cc4CC[C@H]3[C@@H]1CC[C@@H]2O | active: 7.94 µM | – |
| O=C(O)C(c1c[nH]c2cc(F)ccc12)N1CCN(Cc2cccc3ccccc23)CC1 (centres undefined) | active: 39.8 µM | – |
| Cc1ccccc1C(=O)Nc1ccccc1C(=O)N/N=C\c1ccco1 | inactive | – |

Individual results from above.
Entry for `Cc1cc2nc(CSc3ccc(NC(=O)C(C)(C)C)cc3)c(=O)[nH]c2cc1C` under Potency: inconclusive: 35.5 µM [inhibitor, partial curve, poor fit]
Entry for `Cc1nc2ccccc2c(=O)n1/N=C/c1ccco1` under Potency: inactive
Entry for `O=[N+]([O-])c1cc(Cl)ccc1N1CCCCC1` under Potency: inactive
Entry for `Cc1cccc(-n2ncc3c(=O)[nH]c(SCC(=O)Nc4cc(C)on4)nc32)c1` under Potency: inconclusive: 112 µM [inhibitor, partial curve, poor fit]

(further entries)

| SMILES | Potency | activity change, negative = inhibition |
| --- | --- | --- |
| O=C(CN1C(=O)NC(c2ccc(Cl)cc2)C2=C1COC2=O)Nc1ccc2c(c1)OCCO2 (centres undefined) | inconclusive: 14.1 µM [inhibitor, full curve] | – |
| CCOC(=O)C(NC(=O)Cc1cc(OC)c(OC)c(OC)c1)C(=O)OCC | inconclusive: 35.5 µM [inhibitor, partial curve, poor fit] | – |
| CCOC(=O)c1cc(-c2ccccc2)n(CCCC(=O)Nc2cccc(C)c2C)c1C | inactive | – |
| COc1cc(NC(=O)Nc2nc(C(N)Cc3ccc(C(F)(F)F)cc3)cs2)cc(OC)c1OC (centres undefined) | inconclusive: 56.2 µM [inhibitor, partial curve, poor fit] | – |
| O=C(CCN1C(=O)c2ccccc2S1(=O)=O)N1CCN(c2ccccc2)CC1 | inconclusive: 112 µM [inhibitor, partial curve, poor fit] | – |
| CCN(CC)S(=O)(=O)c1ccc(Cl)c(C(=O)Nc2ccc(Cl)cc2[N+](=O)[O-])c1 | inactive | – |
| COc1ccc(C2=NN(c3ccccc3)C(c3cccs3)C2)cc1 (centres undefined) | inconclusive: 0.447 µM [inhibitor, full curve, poor fit] | – |
| O=S(=O)(c1ccc(Br)cc1)N1CCC2(CC1)OCCO2 | inconclusive: 100 µM [inhibitor, single point] | – |
| N[C@H](Cc1ccc(Cl)cc1)C(=O)O | inconclusive: 5.01 µM [inhibitor, full curve, poor fit] | – |
| O=C(NCC1Cc2cc(-c3cnc4ccccc4c3)cc(F)c2O1)c1cnsn1 (centres undefined) | inconclusive: 89.1 µM [inhibitor, single point] | – |
| CCCCCOC(=O)c1c(C)oc2c1cc(NS(=O)(=O)c1cccs1)c1ccccc12 | inconclusive: 112 µM [inhibitor, partial curve, poor fit] | – |
| Cn1c(=O)c2ccnn2c2ccc(C(=O)Nc3ccc4c(c3)OCCO4)cc21 | inactive | – |
| C=CC(=O)N1CCCC(Nc2nc(Nc3ccc(N(C)C(=O)CC)cc3C)nc3nc[nH]c23)C1 (centres undefined) | inconclusive: 35.5 µM [inhibitor, single point] | – |
| COc1cccc(C(NC(C)=O)c2nc(-c3ccoc3)cs2)c1 (centres undefined) | inconclusive: 44.7 µM [inhibitor, partial curve, poor fit] | – |
| CN1CCC(N2CCC(CN(Cc3ccncc3)C(=O)c3cnc[nH]3)CC2)CC1 | inconclusive: 3.55 µM [inhibitor, full curve, poor fit] | – |
| CCN=c1scc(C)n1/N=C/c1cc(Br)c(O)c(Br)c1 | active: 25.1 µM | – |
| CSc1ccccc1NC(=O)CC(C)(C)CC(=O)O | inactive | – |
| CCCCCN(C(=O)CCC(=O)OCC(=O)c1cccc(OC)c1)c1c(N)n(CCCC)c(=O)[nH]c1=O | inconclusive: 31.6 µM [inhibitor, partial curve, poor fit] | – |
| COc1ccc(C2c3[nH]c4ccccc4c3CCN2CCCn2cccn2)c(C)c1C (centres undefined) | inactive | – |
| CCn1c(C)nc2cc(C(=O)N/N=C/c3cccc(OC)c3O)ccc21 | inconclusive: 31.6 µM [inhibitor, full curve, poor fit] | – |
